In all, about 400,000 compounds went through this assay and about 5,500 (1.4%) were called active. Inconclusive results, whose numbers are uncertain, are shown with a selection of clear calls. Calls follow the shape of the dose curve; as a rule, active = well fitted cell-killing curve with a large enough effect; inconclusive = small, poorly fitted or top-dose-only effect, or effect the other way; inactive = flat fitted curve, though single readings scatter. A potency beside an inconclusive call is a rough fit, not a confirmed value.
Experiment: qHTS assay for MDR1-selective chemotherapeutics: Primary screen using the parental adenocarcinoma cell KB-3-1; also: nearly all actives have a fitted effect of over 60% in size
Conditions: KB-3-1 viability, CellTiter-Glo ATP luminescence, 72 h; activity change, negative = cytotoxic: at 46.1 µM (top of the series)
Procedure, shortened: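 Luminescent ATP read-out (CellTiter-Glo) measures survival of drug-naive KB-3-1 cells after 72 h compound exposure at 37 °C. Titration series was screened from lowest to highest concentration, with DMSO vehicle plates as background controls.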
% is scaled to controls: 0 for no effect and ±100 for the full control effect; potency is read from the fitted curve at half-maximal effect.

| Structure (SMILES) | activity change, negative = cytotoxic | Potency |
| --- | --- | --- |
| Cc1cc(Br)cn2c(Cc3ccccc3C(F)(F)F)c(-c3ccccc3)nc12 | inactive: -13.1% |  |
| CCN(C(=O)Cn1nc2c3cc(F)ccc3n(Cc3cccc(C)c3)cc-2c1=O)c1cccc(C)c1 | inactive: 6.38% |  |
| CSCCC1NC(=O)N(CC(=O)N2N=C(c3ccc(Cl)cc3)CC2c2ccco2)C1=O (stereo not drawn) |  | inconclusive: 29.1 µM [cytotoxic, single point] |
| CC(C)Cn1c(N)c(C(=O)COC(=O)c2cccn2C)c(=O)n(C)c1=O | inconclusive: -11.8% |  |
| CCC(C)n1c(SCC(=O)NC2CCCC2)nc2ccccc2c1=O (stereo not drawn) |  | inconclusive: 0.0052 µM [cytotoxic, full curve] |
| COC(=O)[C@@]1(C)[C@H]2C(=O)N(C)C(=O)[C@H]2[C@H]2CN=C(SC)N21 |  | inconclusive: 29.1 µM [rising, single point] |
| CCc1cc(C(=O)c2ccc(OC)cc2)c(NC(=O)CN2CCN(C)CC2)s1 |  | inconclusive: 3.66 µM [rising, full curve, poor fit] |
| Cc1ccc(C)c(NC(=O)C(=O)NCC(c2cccnc2)N2CCN(c3ccc(F)cc3)CC2)c1 (stereo not drawn) |  | inconclusive: 20.6 µM [cytotoxic, single point] |
| CCOc1ccc(C(=O)Nc2ccc(Cc3ccncc3)cc2)cc1Br |  | inconclusive: 32.6 µM [cytotoxic, single point] |
| Nc1nc2ccc(Cl)cc2cc1C(=O)NCc1ccc(Oc2ccccc2)cc1 |  | inconclusive: 3.66 µM [cytotoxic, full curve] |
| Cc1nn(-c2ccccc2)c2nc(N)c(C#N)c(-c3ccc(O)c(O)c3)c12 |  | inconclusive: 29.1 µM [cytotoxic, single point] |
| COc1ccc(Cn2nnc3c(=O)[nH]c(C4CCCN(C(=O)c5ccccc5Cl)C4)nc32)cc1OC (stereo not drawn) | inactive: -12.3% |  |
| Cc1c(C(=O)N/N=C/C(C)C)[nH]c2c([N+](=O)[O-])cccc12 |  | inconclusive: 18.4 µM [cytotoxic, single point] |
| Cc1cc(Oc2ccc3ccccc3c2)nc(SCC(=O)c2ccccc2)n1 |  | active: 18.4 µM |
| Cc1c(C(=O)NCc2cccs2)sc(=O)n1Cc1ccc(S(C)(=O)=O)cc1 |  | inconclusive: 20.6 µM [cytotoxic, single point] |
| CCOC(=O)c1ccc(NC(=O)c2nc(S(=O)(=O)Cc3ccccc3)ncc2Cl)cc1 |  | active: 20.6 µM |
| CC1CN(C(=O)CCC(=O)NCc2cccs2)c2ccccc2O1 (stereo not drawn) | inactive: 2.72% |  |
| COc1ccc(CN(C(=O)c2cccs2)c2ccccc2)cc1 |  | inconclusive: 29.1 µM [cytotoxic, single point] |
| O=C(CS(=O)(=O)c1cn(Cc2ccc(F)cc2)c2ccccc12)N1CCOCC1 |  | inconclusive: 14.6 µM [cytotoxic, single point] |
| N#C/C(=N/Nc1ccccc1[N+](=O)[O-])C(N)=S | inactive: 5.62% |  |
| Cc1nn(-c2ccccc2)nc1C(=O)Nc1nnc(C(F)(F)F)s1 |  | inconclusive: 9.2 µM [cytotoxic, partial curve, poor fit] |
| Cc1cccc(-n2c(-c3csc(C)c3)n[nH]c2=S)c1 | inactive: -19.1% |  |
| COc1ccc(CN(C)CCCn2cnc3c(OCc4ccccc4)ncnc32)cc1 |  | inconclusive: 18.4 µM [cytotoxic, single point] |
| COc1ccc(C(=O)CN2C3=NCCCN3c3ccccc32)cc1OC | inactive: 15.1% |  |
| Cc1ccc2c(c1)c1c(n2CC(O)CNC2CCCCC2)CCCC1 (stereo not drawn) |  | inconclusive: 25.9 µM [cytotoxic, partial curve, poor fit] |

| Structure (SMILES) | activity change, negative = cytotoxic | Potency |
| --- | --- | --- |
| CC1CN=C(N(C(=O)Nc2ccccc2)C(C)c2ccccc2)S1 (stereo not drawn) | inactive: 0.932% |  |
| O=C1Nc2ccccc2N(C(=O)c2ccc3ccccc3c2)C1c1nc2ccccc2[nH]1 (stereo not drawn) |  | inconclusive: 23.1 µM [cytotoxic, single point] |
| COc1ccc(CCNC(=S)NCCc2ccc(OC)c(OC)c2)cc1OC |  | inconclusive: 20.6 µM [cytotoxic, partial curve] |
| CCCCOc1cccc(C(=O)N(Cc2ccc(Cl)cc2)C2CCS(=O)(=O)C2)c1 (stereo not drawn) | inactive: 0% |  |
| O=C1NC(=S)S/C1=C\c1cc2ccccc2nc1N1CCCCC1 |  | inconclusive: 20.6 µM [cytotoxic, single point] |
| CCSc1nnc([C@H](Cc2ccccc2)NC(=O)OC(C)(C)C)o1 | inactive: -0.587% |  |
| Cc1ccc(C(=O)C2CCNCC2)cc1 | inactive: 13.2% |  |
| CCc1nnc(NC(=O)Nc2ccc(Cl)cc2)s1 | inactive: -15.4% |  |
| CC1CCCCC1NC(=O)c1cc(S(=O)(=O)N2CCOCC2)ccc1Cl (stereo not drawn) | inactive: 1.96% |  |
| O=c1c2cc(Br)ccc2nc(-c2ccc([N+](=O)[O-])cc2)n1O |  | inconclusive: 18.4 µM [cytotoxic, single point] |
| COc1ccc(C2=Nc3ccccc3N(C(=O)c3ccc4c(c3)OCO4)C2C(=O)NCc2ccccc2)cc1 (stereo not drawn) |  | active: 4.61 µM |
| COc1ccc(CNC(=O)CN(C)c2nn3c(=O)cc(C)nc3s2)cc1 | inactive: 7.85% |  |
| COc1ccc2c(c1)c(C(=O)N/N=C/c1ccccc1Cl)c(C)n2C |  | inconclusive: 7.31 µM [rising, partial curve] |
| Cc1ccc(-c2nnc(Nc3ccc(Cl)cc3)c3ccccc23)cc1S(=O)(=O)NCC1CCCO1 (stereo not drawn) | inactive: -13.2% |  |
| COc1ccc(/C=C/c2nc3ccccc3n2Cc2ccccc2OC)cc1 |  | inconclusive: 29.1 µM [cytotoxic, single point] |
| CC(C)(C)OC(=O)NCCCCCNC(=O)c1ncn2c1c(=O)[nH]c1ccccc12 | inconclusive: -33.1% [cytotoxic] |  |
| COc1cc(C(=O)Nc2ccccc2OCc2cc(=O)n3cc(C)sc3n2)cc(OC)c1OC | inactive: 15.5% |  |
| Cc1coc2c(C)c3oc(=O)c(CCC(=O)NCCCN4CCOCC4)c(C)c3cc12 | inactive: 0% |  |
| COc1ccc(Cl)cc1NC(=O)CN(C)C(=O)c1cn(-c2ccccc2)nc1-c1cccs1 |  | inconclusive: 18.4 µM [cytotoxic, single point] |
| COC(=O)CCCC1=CC2=CC(=O)C(C)(OC(=O)c3cccs3)C(=O)C2=CN1Cc1ccco1 (stereo not drawn) | inconclusive: 34.4% |  |
| O=C(O)COc1ccccc1/C=N/NC(=O)CSc1nc2ccccc2n1Cc1ccccc1Cl | inactive: 6.71% |  |
| CC1Cc2ccccc2N1C(=S)Nc1ccc(S(N)(=O)=O)cc1 (stereo not drawn) |  | inconclusive: 18.4 µM [cytotoxic, single point] |
| Clc1ccc2nc(-c3ccc4c(c3)OCO4)cn2c1 |  | inconclusive: 29.1 µM [cytotoxic, single point] |
| CCC(NC(=O)CN1CCN(C(=O)c2cccs2)CC1)c1ccc(C)cc1 (stereo not drawn) | inactive: -24.9% |  |
| COC(=O)CSC1=C(C#N)C(c2ccc(C)o2)CC(=O)N1 (stereo not drawn) |  | active: 18.4 µM |

| Structure (SMILES) | activity change, negative = cytotoxic | Potency |
| --- | --- | --- |
| Cc1ccc(C)c(S(=O)(=O)N2CCN(c3nc(-c4cccnc4)nc4ccccc34)CC2)c1 |  | inconclusive: 18.4 µM [cytotoxic, single point] |
| Cc1cc[n+](CC2OCc3ccccc3CO2)cc1 |  | inconclusive: 18.4 µM [cytotoxic, single point] |
| CC1(C)Oc2ccc3ccc(=O)oc3c2/C(=C/NC2CCCCC2)C1=O | inactive: -1.07% |  |
| C=CCNc1ncnc2ccc(Br)cc12 |  | inconclusive: 29.1 µM [cytotoxic, single point] |
| C/C(=N\NC(=O)c1ccccc1O)c1ccc(NC(=O)Cc2ccccc2)cc1 |  | inconclusive: 18.4 µM [cytotoxic, single point] |
| C[C@H](CO)N1C[C@H](C)[C@H](CN(C)Cc2ccccc2)Oc2ccc(NC(=O)Nc3ccc(F)cc3)cc2C1=O |  | inconclusive: 29.1 µM [cytotoxic, single point] |
| Cc1ccc(C)c(NS(=O)(=O)c2ccc3c(c2)Cc2cc(S(=O)(=O)Nc4cc(C)ccc4C)ccc2-3)c1 |  | inconclusive: 29.1 µM [cytotoxic, single point] |
| CC1=CC(C)(C)N(S(=O)(=O)c2ccc(F)cc2)c2ccc(C)cc21 |  | active: 23.1 µM |
| CC1=CC(=C2C(=O)c3ccccc3C2=O)C=C(C)N1Cc1ccco1 | inactive: -3.75% |  |
| NCCCCCc1nnc(SC/C=C/c2ccccc2)o1 | inactive: 5.83% |  |
| CC(=C/c1ccccc1)/C=N/Nc1nc(N2CCCCC2)nc(N2CCCCC2)n1 | inactive: -14.5% |  |
| O=C(N/N=C/c1ccccc1O)c1ccc2c(c1)OCO2 |  | inconclusive: 18.4 µM [cytotoxic, single point] |
| Cc1ccc(NC(=O)c2cccs2)cc1S(=O)(=O)Nc1cccc(Cl)c1 | inactive: 0.323% |  |
| Cc1cccc(NC(=O)c2cccc(S(=O)(=O)N3CCCC3)c2)n1 |  | inconclusive: 0.82 µM [rising, partial curve, poor fit] |
| COc1ccc(CN2CCN(C(=O)C3CCN(S(=O)(=O)c4cccs4)CC3)CC2)c(OC)c1OC |  | inconclusive: 29.1 µM [rising, single point] |
| Cc1ccc(OCCCC(=O)Nc2ccc(S(=O)(=O)N3CCOCC3)cc2)cc1 |  | inconclusive: 29.1 µM [cytotoxic, single point] |
| Cc1ccc2nc(SCC(=O)Nc3cc(C(F)(F)F)ccc3N3CCOCC3)[nH]c2c1 |  | active: 0.82 µM |
| CC1=C(C(=O)Nc2ccccc2)C(c2ccc(C(=O)O)cc2)n2nc(SCC(=O)c3ccc(C)cc3)nc2N1 (stereo not drawn) | inactive: 0.562% |  |
| CCOC(=O)c1cc(NC(=O)NC2CCCCC2)c(C)nc1C | inactive: 9.81% |  |
| COc1ccc(NC(=O)CCOc2ccc(C)cc2)cc1S(=O)(=O)N1CCCCC1 |  | inconclusive: 0.231 µM [cytotoxic, full curve, poor fit] |
| C=C1CC(COc2cc(=O)oc3ccccc23)(c2ccccc2)OC1=O (stereo not drawn) |  | active: 10.3 µM |
| COCCCNC(=O)/C(C#N)=C/c1cccc(NC(=O)c2ccccc2Cl)c1 | inactive: -13.1% |  |
| CCN(CC)S(=O)(=O)c1ccc(C(=O)Nc2ccc3c(c2)OCO3)cc1 | inconclusive: -0.869% |  |

Reference: PubChem BioAssay AID1347075 (National Center for Advancing Translational Sciences (NCATS), 2019)
